From ROBIN, a set of small-molecule microarray screens (doi:10.1002/anie.202211358).

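Compounds were printed on reactive glass slides in duplicate spots, a dye-labelled oligonucleotide was laid over them, and the fluorescence left after washing was read. For the PreQ1, TPP and SAM-II riboswitches the laboratory earlier reported (doi:10.1038/s41467-019-09493-3) 1 µM RNA, 2 h, and a rule that included a mean Z-score above 3 (spot signal-to-noise against the whole library), a score well above that on a control array, and duplicate spots agreeing (coefficient of variation under 100). The data file gives only the calls; its cut-offs may differ, and compounds hitting several targets are kept. These are primary screening calls, not affinities; a compound without a hit may have attached poorly or may still bind in solution.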 Key: Y = hit, N = tested without a hit. The compounds are a random part of those screened. A dash means that no call is listed here.

Targets (5′ to 3′):
T1: TPP riboswitch RNA three-way junction, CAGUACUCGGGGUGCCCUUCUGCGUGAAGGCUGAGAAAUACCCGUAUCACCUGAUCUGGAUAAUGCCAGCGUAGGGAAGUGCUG. About 160 hits among about 24,000 compounds.
T2: SAM-II riboswitch RNA pseudoknot, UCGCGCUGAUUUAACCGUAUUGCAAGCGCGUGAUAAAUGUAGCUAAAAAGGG. About 200 hits among about 21,000 compounds.
T3: PreQ1 riboswitch RNA pseudoknot, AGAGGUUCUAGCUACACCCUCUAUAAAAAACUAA. From B. subtilis. About 170 hits among about 24,000 compounds.

compound | T1 | T2 | T3
CCOC(=O)N1CCC(NCCOc2c(C)cc(C)cc2C)CC1 | N | N | N
Cc1cc(N2CCN(CCO)CC2)n2nc(Cc3ccc(Cl)cc3)nc2n1 | N | - | N
CC1(C)SC(C)(C)N(C=O)C1C(=O)O (stereo not shown) | N | N | N
CCCCNCCOc1ccccc1OCC.O=C(O)C(=O)O | N | N | N
Cc1cc(C(=O)NCC(C)Oc2cccnc2)nc(N)n1 (stereo not shown) | N | N | N
Cc1cc(C)nc(Nc2ccc(S(=O)(=O)Nc3ccccn3)cc2)n1 | N | N | N
CC1=C(c2cccc(Br)c2)S(=O)(=O)N=C1NCc1ccccc1 | N | - | N
Cc1ccccc1-c1noc(-c2nnn(-c3cccc(F)c3)c2N)n1 | N | - | N
C=CC(=O)Nc1ccc2ncnc(Nc3ccc(OCc4cccc(F)c4)c(Cl)c3)c2c1 | N | Y | N
COc1nc(NCC2CCCO2)nc(N2CC3CC(C2)c2cccc(=O)n2C3)n1 (stereo not shown) | N | N | N
CN1C(=O)C(O)(CC(=O)c2cccc(N)c2)c2ccccc21 (stereo not shown) | N | N | N
Cn1c(=O)c2c(ncn2CCCN)n(C)c1=O | N | N | N
COc1ccc(C(=O)NCCNc2c(Cl)cccc2[N+](=O)[O-])cc1Cl | N | N | N
CNc1c(Cl)ccc2c1C(=O)c1ccccc1C2=O | N | N | N
Nc1c(Br)cc(Br)c2nsnc12 | N | N | N
Cc1nn(CC(O)COc2ccc(-c3ccccc3)cc2)c(C)c1Br (stereo not shown) | N | N | N
Cc1onc(-c2ccccc2)c1C(=O)N[C@@H]1C(=O)N2[C@@H]1SC(C)(C)[C@@H]2C(=O)[O-].[Na+] | N | N | N
Cc1ccc(-c2cnc3c(-c4ccc(Cl)cc4)cnn3c2N)cc1 | N | N | N
O=C(c1csc(Cc2ccccc2)n1)N1CCN[C@H]2CS(=O)(=O)C[C@H]21 | N | N | N
COCCN(C)C[C@@H]1CN(c2ncc(C)c(N(C)C)n2)C[C@@H]1CO | N | N | N
CCOC(=O)c1nc(SC)n(C)c1C(=O)OCC | N | N | N
CC(=O)N1C(=O)C2(C(C#N)=C(N)Oc3[nH]nc(-c4ccccn4)c32)c2ccccc21 (stereo not shown) | N | N | N
O=c1c(NCCN2CCN(Cc3ccccc3)CC2)c(-c2ccccc2)c1=O | N | - | N
Cc1ccc(CN(CCCO)C(=O)c2c[nH]nc2C)s1 | N | N | N
Clc1ccc(-c2nnc(NCCN3CCCC3)c3ccccc23)cc1 | N | N | N
Cc1ccc2nc(C)cc(Nc3ccc(N4CCN(C)CC4)cc3)c2c1 | N | N | N
CC(C)C(NCc1nc(Cc2ccccc2F)no1)c1ncnn1C (stereo not shown) | N | N | N
CC(=O)Nc1ccc(O)cc1 | N | N | N
CCOC(=O)c1ccc(Nc2ncnc3c2nc2n3CCCCC2)cc1 | N | - | N
CCc1cncnc1N1CCN(Cc2nc3ccc(C(F)(F)F)cc3[nH]2)CC1 | N | N | N
COc1cccc(SCC(=O)N2CCOCC(O)C2)c1 (stereo not shown) | N | N | N
Cc1cccc(N2CCN(CC(O)c3ccc4cc[nH]c4c3)CC2)c1C (stereo not shown) | N | N | N
COCCNc1cc(C)nc2c(-c3ccc(Cl)cc3)cnn12 | N | - | N
c1cncc(C2CCCCN2c2ncnc3sc4c(c23)CCNC4)c1 (stereo not shown) | N | N | N
NC(=O)CCn1cc(CNCc2noc(-c3ccco3)n2)c2ccccc21 | N | N | N
Cn1c(CO)nnc1CC1CCN(C(=O)CCc2c[nH]c3ccccc23)CC1 | N | N | N
COc1ccc(-c2cnc3ccccc3c2)cc1CO | N | N | N
CCOC(=O)c1sc2nc(C)nc(NCCc3ccccc3Cl)c2c1C | N | N | N
COc1cccc2c1cc([N+](=O)[O-])c1c(C(=O)O)cc3c(c12)OCO3 | N | N | N
OCc1csc(N2CCOC(c3ccc(Cl)c(Cl)c3)C2)n1 (stereo not shown) | N | N | N
Cc1nc2nc(CNc3ccccc3)nn2c(C)c1Cl | N | - | N
Cc1ccc(NC(C)(C)C(=O)N2CCC(CN)C2)cc1 (stereo not shown) | N | N | N
O=C1CC(NC2CCN(c3ccc(Cl)nn3)CC2)C(=O)N1c1ccc(F)cc1 (stereo not shown) | N | N | N
CCc1cc(C)cc(OCC(O)Cn2cnc3ccccc32)c1 (stereo not shown) | N | N | N
O=c1[nH]c(NCc2nc(-c3ccc(F)cc3)cs2)nc2c1CCNC2 | N | N | Y
CCOC(=O)c1nc(Nc2cccc(Cl)c2C)c2ccccc2n1 | N | N | N
COc1ccc(CCN)cc1-c1ccc(OC)c2nc(C)ccc12 | N | N | N
Cc1cccc(CNc2nc3c(C)cccc3cc2-c2noc(C)n2)c1 | N | - | N
COCC(C)NCc1cccc(-c2cn[nH]c2)c1 (stereo not shown) | N | N | N
CC1(C)Cc2c(C#N)c(Nc3ccccc3)n3cnnc3c2CO1 | N | N | N
CCC(c1cccnc1)N(C)C(=O)CNC (stereo not shown) | N | N | N
Brc1ccc(Nc2cc(-c3ccccc3)ncn2)cc1 | N | - | N
Cc1ccc(-c2c(NCc3ccccn3)c(=O)c2=O)cc1C | N | - | N
O=C(NC(c1ccccc1)c1ccncc1)c1ccc2[nH]c(CO)nc2c1 (stereo not shown) | N | N | N
Nc1cc(OC(=O)c2ccccc2Cl)nn1S(=O)(=O)c1ccccc1 | N | N | N
Cc1ccc2nc(-c3ccc(C)o3)c(Nc3ccccc3)n2c1 | N | N | N
CCOc1cc2c(c(F)c1OCC)C(=N)N(CC(=O)c1cc(N3CCOCC3)c(OC)c(C(C)(C)C)c1)C2 | N | N | N
Cl.Clc1ccccc1CNCc1ccccc1 | N | N | N
Cc1ccc(N2C(=O)c3ccccc3C2Nc2ccccc2)nc1 (stereo not shown) | N | N | N
COCCC1(CO)CCCN(C(=O)Cn2cc(C)c(=O)[nH]c2=O)C1 (stereo not shown) | N | N | N
CCCC1C(=O)CC(c2ccco2)NC1c1ccco1 (stereo not shown) | N | N | N
CN(C)CCCNc1cc(Cl)c(S(=O)(=O)N2CCCCC2)cc1C(=O)O | N | N | N
CN(C)c1ccc(CCNC(=O)c2cccc(C3CCCNC3)c2)cc1 (stereo not shown) | N | N | N
CC(C)(CO)N1CCN(C(=S)Nc2ccccc2)CC1 | N | N | N

Some entries from above, unchanged:

| compound | T1 | T2 | T3 |
|---|---|---|---|
| `CC(C)C(NCc1nc(Cc2ccccc2F)no1)c1ncnn1C` (stereo not shown) | N | N | N |
| `CC1=C(c2cccc(Br)c2)S(=O)(=O)N=C1NCc1ccccc1` | N | - | N |
| `CN1C(=O)C(O)(CC(=O)c2cccc(N)c2)c2ccccc21` (stereo not shown) | N | N | N |
| `COc1ccc(-c2cnc3ccccc3c2)cc1CO` | N | N | N |
| `CCCCNCCOc1ccccc1OCC.O=C(O)C(=O)O` | N | N | N |
| `C=CC(=O)Nc1ccc2ncnc(Nc3ccc(OCc4cccc(F)c4)c(Cl)c3)c2c1` | N | Y | N |
| `Cc1cc(N2CCN(CCO)CC2)n2nc(Cc3ccc(Cl)cc3)nc2n1` | N | - | N |